PubChem BioAssay AID1259314 | Drosophila RNAi Screening Center, 2017
This is a random part of about 3,100 deposited reagents. 289 of them (9.3%) count as active. 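Active includes both higher and lower ATP than plate average; check the z-score sign for direction.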 Unmarked entries are inactive. A plus sign joins genes that one reagent is predicted to hit. Not given: the amount of reagent.

Screen: 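Genes whose knock-down alters cell survival under toxic manganese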 (primary screen)
Cell system: Drosophila S2R+ cells
Reagent: long dsRNA against Drosophila genes
Duration: 5 days (4 days knock-down, then 1 day metal exposure)
Conditions: manganese chloride added to 15 mM for 24 hours
Measurement: 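Cellular ATP measured by luciferase light, scaled to the plate mean, averaged across replicates and z-scored over plates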
Direction: mean ATP z-score: higher = more ATP than the plate average, more viable cells under manganese
Hit rule: 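a mean ATP z-score past 1.5 in either direction is called active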
Calls: active = strong ATP change, up or down; inactive = no strong ATP change

target gene | dsRNA | mean ATP z-score
18w (GeneID 37277) | DRSC29700 | 0.35
sit (GeneID 42658) | DRSC15760 | -0.307
sit (GeneID 42658) | DRSC25250 | 0.371
Zip89B (GeneID 41975) | DRSC16128 | -0.0554
Zip89B (GeneID 41975) | DRSC29691 | -0.623
Snmp2 (GeneID 38868) | DRSC10228 | 0.648
Snmp2 (GeneID 38868) | DRSC10843 | 0.39
Scgbeta (GeneID 41525) | DRSC15854 | -0.171
Nrx-1 (GeneID 42646) | DRSC16184 | -0.568
Ac78C (GeneID 40333) | DRSC11602 | -1.85 (active)
Ac78C (GeneID 40333) | DRSC11619 | 0.42
CG18609 (GeneID 37158) | DRSC06775 | -0.0936
CG18609 (GeneID 37158) | DRSC27601 | -0.954
Tmep (GeneID 38185) | DRSC08215 | -1.57 (active)
Tmep (GeneID 38185) | DRSC26652 | -0.0453
Gr59d (GeneID 117343) | DRSC22553 | -0.137
Gr59d (GeneID 117343) | DRSC39897 | 0.329
CG7458 (GeneID 40441) | DRSC11829 | 0.112
CG7458 (GeneID 40441) | DRSC21340 | -0.0995
Icmt (GeneID 39478) | DRSC09834 | -0.678
Icmt (GeneID 39478) | DRSC39884 | 1.61 (active)
ds (GeneID 33245) | DRSC00815 | 0.124
CG14070 (GeneID 34508) | DRSC02373 | 0.874
CG13801 (GeneID 38299) | DRSC08335 | -0.68
Prestin (GeneID 39996) | DRSC10507 | -2.56 (active)
CG2519 (GeneID 40666) | DRSC12312 | 0.411
CG3216 (GeneID 37376) | DRSC04347 | -0.614
CG3216 (GeneID 37376) | DRSC24945 | -0.378
Tsp26A (GeneID 33838) | DRSC03135 | 2.28 (active)
Zip48C (GeneID 36273) | DRSC06314 | -1.18
Zip48C (GeneID 36273) | DRSC39573 | 0.698
Dscam1 (GeneID 35652) | DRSC07407 | 1.52 (active)
Dscam1 (GeneID 35652) | DRSC21562 | -0.361
Dscam1 (GeneID 35652) | DRSC29101 | 0.538
Cad89D (GeneID 42006) | DRSC15022 | 0.442
Cad89D (GeneID 42006) | DRSC39775 | -0.644
Gr59c (GeneID 192481) | DRSC04185 | 0.661
galene (GeneID 38133) | DRSC08640 | -0.327
galene (GeneID 38133) | DRSC08641 | -0.214
TkR99D (GeneID 43551) | DRSC16881 | 0.268
TkR99D (GeneID 43551) | DRSC39870 | 0.419
shg (GeneID 37386) | DRSC04714 | -0.475
shg (GeneID 37386) | DRSC38948 | -0.0802
CG9447 (GeneID 35597) | DRSC05008 | -0.158
CG3603 (GeneID 31289) | DRSC18317 | 0.156
CG3603 (GeneID 31289) | DRSC39790 | 0.627
Arms (GeneID 37433) | DRSC03856 | -0.203
Arms (GeneID 37433) | DRSC04052 | -1.4
Vmat + CG13330 | DRSC06365 | -0.206
Vmat + CG13330 | DRSC28600 | 1.53 (active)
CG32645 (GeneID 32264) | DRSC19683 | 0.705
CG32645 (GeneID 32264) | DRSC19889 | -0.0376
CG13794 (GeneID 34048) | DRSC02298 | 2.34 (active)
CG13794 (GeneID 34048) | DRSC25419 | 0.565
CG5554 (GeneID 37775) | DRSC04513 | 1.19
CG5554 (GeneID 37775) | DRSC25559 | -0.113
Tsp42Ee (GeneID 35614) | DRSC05947 | 1.9 (active)
Tsp42Ee (GeneID 35614) | DRSC29024 | 1.42
Tsp29Fa (GeneID 34211) | DRSC03232 | -0.232
Tsp29Fa (GeneID 34211) | DRSC28522 | 0.000836
CG7970 (GeneID 38205) | DRSC08605 | 2.11 (active)
CG7970 (GeneID 38205) | DRSC26090 | 0.414
CG45067 + CG45066 | DRSC08414 | -0.989
CG45067 + CG45066 | DRSC27186 | 1.06
tadr (GeneID 35370) | DRSC03177 | -0.801
tadr (GeneID 35370) | DRSC39590 | -0.369
Glut1 (GeneID 38109) | DRSC07927 | 0.0631
Glut1 (GeneID 38109) | DRSC08662 | -0.462

The list goes on (14 carried over from the part before).
target gene | dsRNA | mean ATP z-score
CG5554 (GeneID 37775) | DRSC04513 | 1.19
CG5554 (GeneID 37775) | DRSC25559 | -0.113
Tsp42Ee (GeneID 35614) | DRSC05947 | 1.9 (active)
Tsp42Ee (GeneID 35614) | DRSC29024 | 1.42
Tsp29Fa (GeneID 34211) | DRSC03232 | -0.232
Tsp29Fa (GeneID 34211) | DRSC28522 | 0.000836
CG7970 (GeneID 38205) | DRSC08605 | 2.11 (active)
CG7970 (GeneID 38205) | DRSC26090 | 0.414
CG45067 + CG45066 | DRSC08414 | -0.989
CG45067 + CG45066 | DRSC27186 | 1.06
tadr (GeneID 35370) | DRSC03177 | -0.801
tadr (GeneID 35370) | DRSC39590 | -0.369
Glut1 (GeneID 38109) | DRSC07927 | 0.0631
Glut1 (GeneID 38109) | DRSC08662 | -0.462
l(2)k05819 (GeneID 33644) | DRSC00826 | -0.246
l(2)k05819 (GeneID 33644) | DRSC39612 | -0.38
Unc50 (GeneID 41029) | DRSC16561 | -0.779
Unc50 (GeneID 41029) | DRSC28560 | 0.643
Or94a (GeneID 42711) | DRSC16772 | -0.206
CG33090 (GeneID 34835) | DRSC01908 | -0.358
CG33090 (GeneID 34835) | DRSC27923 | -0.604
CG9760 (GeneID 39388) | DRSC11101 | -1.13
CG9760 (GeneID 39388) | DRSC28846 | -0.726
Syt1 (GeneID 33473) | DRSC00158 | 0.266
Syt1 (GeneID 33473) | DRSC00840 | -0.834
Syt1 (GeneID 33473) | DRSC22077 | -0.129
Syt1 (GeneID 33473) | DRSC27456 | -1.01
CG12990 (GeneID 32747) | DRSC19510 | -0.218
CG8323 (GeneID 36566) | DRSC07149 | -0.718
Ir7e (GeneID 7354417) | DRSC18011 | 0.418
Alg14 (GeneID 32479) | DRSC19983 | -0.64
Dh31-R (GeneID 36475) | DRSC06669 | -0.0765
Dh31-R (GeneID 36475) | DRSC23417 | -0.619
Or85c (GeneID 41008) | DRSC16766 | -0.346
Or85c (GeneID 41008) | DRSC39833 | -0.899
unc-5 (GeneID 36703) | DRSC05545 | 1.91 (active)
unc-5 (GeneID 36703) | DRSC07711 | -0.00243
unc-5 (GeneID 36703) | DRSC07712 | 0.223
Ir68b (GeneID 39378) | DRSC10251 | -0.889
Ir68b (GeneID 39378) | DRSC39424 | -1.14
GPHR (GeneID 36682) | DRSC07075 | -0.193
GPHR (GeneID 36682) | DRSC39570 | 0.743
CG13793 (GeneID 34047) | DRSC02297 | 1.93 (active)
CG13793 (GeneID 34047) | DRSC28252 | 0.264
nAChRalpha5 (GeneID 34826) | DRSC01946 | 0.941
Gr58a (GeneID 117344) | DRSC03910 | -0.147
Npc1a (GeneID 34358) | DRSC03378 | -0.461
Npc1a (GeneID 34358) | DRSC39428 | -0.47
otk (GeneID 36283) | DRSC07658 | -0.224
otk (GeneID 36283) | DRSC29192 | 1.45
otk (GeneID 36283) | DRSC36649 | -0.063
otk (GeneID 36283) | DRSC36650 | 0.276
Loxl1 (GeneID 43712) | DRSC14303 | 0.21
CG32054 (GeneID 326185) | DRSC10684 | -1.1
CG32054 (GeneID 326185) | DRSC24449 | 7.64 (active)
CG13223 (GeneID 36190) | DRSC06344 | -0.331
CG13223 (GeneID 36190) | DRSC39714 | 0.375
CG15923 (GeneID 42443) | DRSC15129 | -0.812
ACXD (GeneID 38284) | DRSC23762 | -0.022
ZnT41F (GeneID 35513) | DRSC04850 | 0.216
snu (GeneID 43391) | DRSC16589 | 5.39 (active)
snu (GeneID 43391) | DRSC39720 | -0.397
sut2 (GeneID 44269) | DRSC07701 | -0.617
sut2 (GeneID 44269) | DRSC39500 | 0.317
O-fut1 (GeneID 36564) | DRSC06138 | -1.47
O-fut1 (GeneID 36564) | DRSC39595 | 1.61 (active)
Vha16-3 (GeneID 317846) | DRSC10872 | -0.665
Vha16-3 (GeneID 317846) | DRSC25513 | 2.94 (active)
Gr33a (GeneID 34641) | DRSC02589 | -0.218
Gr33a (GeneID 34641) | DRSC39756 | 0.0951
ATPsynbeta (GeneID 43829) | DRSC17194 | -1.86 (active)
Rdl (GeneID 39054) | DRSC11264 | 0.333
Rdl (GeneID 39054) | DRSC27696 | -1.76 (active)
Tsp42Ei (GeneID 35618) | DRSC06189 | 0.791
Tsp42Ei (GeneID 35618) | DRSC26994 | -0.0684
Eaat2 (GeneID 33247) | DRSC00032 | 1
Eaat2 (GeneID 33247) | DRSC00749 | 0.469
Eaat2 (GeneID 33247) | DRSC26070 | 0.991
ppk10 (GeneID 3885617) | DRSC01123 | 0.413
Ktch (GeneID 43681) | DRSC15094 | -0.0084
Ktch (GeneID 43681) | DRSC25973 | -0.272
CG7582 (GeneID 43492) | DRSC16261 | 0.19
CG7582 (GeneID 43492) | DRSC39773 | -1.25
bond (GeneID 42657) | DRSC16135 | -0.531
bond (GeneID 42657) | DRSC23724 | -0.112
CG5805 (GeneID 42950) | DRSC15878 | -1.94 (active)
CG5805 (GeneID 42950) | DRSC39631 | -1.65 (active)
